# Measurements published in the supplement of paper PMC7238544.
# Structures can show the parent of a compound that is named as a salt. ± gives the standard deviation of the averaged measurements. The list shows a part of the results. The data scatter; read single values as rough.
# Tests used:
# hAMSC donor 1 [1] = experiment: Hoechst total cell count ratio vs vehicle control; higher = more cells (less toxicity)
# hAMSC donor 2 [2] = experiment: as above
# hAMSC donor 1 [3] = experiment: transgenic luciferase activity (RLU/mg protein) fold change vs vehicle control (ratio); higher = more transgene expression
# hAMSC donor 2 [4] = experiment: as above
# hAMSC donor 1 [5] = experiment: transfection efficiency (EGFP+ cells / Hoechst count) fold change vs vehicle control (ratio); hAMSC are human adipose-derived mesenchymal stem cells given an EGFP-luciferase plasmid by lipofection; higher = enhanced transfection
# hAMSC donor 2 [6] = experiment: as above
# [7] = priming compound concentration 0.2 µM
# [8] = priming compound concentration 1.7 µM
# [9] = priming compound concentration 13 µM
SMILES,Hoechst total cell count ratio (hAMSC donor 1 [1]; [7]),Hoechst total cell count ratio (hAMSC donor 1 [1]; [8]),Hoechst total cell count ratio (hAMSC donor 1 [1]; [9]),Hoechst total cell count ratio (hAMSC donor 2 [2]; [7]),Hoechst total cell count ratio (hAMSC donor 2 [2]; [8]),Hoechst total cell count ratio (hAMSC donor 2 [2]; [9]),transgenic luciferase activity (hAMSC donor 1 [3]; [7]),transgenic luciferase activity (hAMSC donor 1 [3]; [8]),transgenic luciferase activity (hAMSC donor 2 [4]; [8]),transgenic luciferase activity (hAMSC donor 2 [4]; [9]),transfection efficiency (hAMSC donor 1 [5]; [7]),transfection efficiency (hAMSC donor 1 [5]; [8]),transfection efficiency (hAMSC donor 1 [5]; [9]),transfection efficiency (hAMSC donor 2 [6]; [7]),transfection efficiency (hAMSC donor 2 [6]; [8]),transfection efficiency (hAMSC donor 2 [6]; [9]),transgenic luciferase activity (hAMSC donor 1 [3]; [9]),transgenic luciferase activity (hAMSC donor 2 [4]; [7])
CC(C)N(CCC(C(N)=O)(c1ccccc1)c1ccccn1)C(C)C (stereo not drawn) [Disopyramide phosphate],0.945 ± 0.05,1.08 ± 0.069,1.47 ± 0.13,1.04 ± 0.17,1.19 ± 0.27,1.04 ± 0.32,0.732 ± 0.098,0.498 ± 0.17,0.725 ± 0.17,0.408 ± 0.13,1.19 ± 0.19,1.1 ± 0.15,0.924 ± 0.25,0.993 ± 0.26,1.14 ± 0.21,0.975 ± 0.19,,
CN1CCN(C(=O)O[C@H]2c3nccnc3C(=O)N2c2ccc(Cl)cn2)CC1 [Eszopiclone],1.2 ± 0.045,1.5 ± 0.26,1.22 ± 0.035,1.02 ± 0.13,1.05 ± 0.043,1.07 ± 0.078,,,,0.844 ± 0.064,1.08 ± 0.24,0.894 ± 0.12,0.877 ± 0.19,1.24 ± 0.15,1.08 ± 0.042,1.262 ± 0.0046,0.666 ± 0.081,0.633 ± 0.098
C[N+]1(CCC(C(N)=O)(c2ccccc2)c2ccccc2)CCCCC1 [Fenpiverinium bromide],1.34 ± 0.18,1.31 ± 0.059,1.35 ± 0.055,0.771 ± 0.11,1.08 ± 0.099,1.31 ± 0.22,0.716 ± 0.33,,,,0.999 ± 0.17,1.17 ± 0.31,1.66 ± 0.11,1.61 ± 0.11,1.06 ± 0.13,1 ± 0.13,,0.624 ± 0.16
COc1ccc2[nH]cc(CCN)c2c1 [5-Methoxytryptamine],1.26 ± 0.044,1.3 ± 0.095,1.4 ± 0.19,1.1 ± 0.17,1.19 ± 0.031,1.01 ± 0.19,0.779 ± 0.81,,,,1.32 ± 0.2,1.17 ± 0.2,1.38 ± 0.18,1.05 ± 0.2,0.928 ± 0.066,1.24 ± 0.084,,0.663 ± 0.061
CCC1(c2ccc(N)cc2)CCC(=O)NC1=O (stereo not drawn) [Aminoglutethimide],1.24 ± 0.23,1.36 ± 0.19,1.29 ± 0.26,1.14 ± 0.1,1.12 ± 0.057,1.32 ± 0.13,,,0.772 ± 0.031,0.681 ± 0.18,0.893 ± 0.089,1.11 ± 0.4,0.884 ± 0.24,0.915 ± 0.13,1.02 ± 0.058,0.952 ± 0.12,0.905 ± 0.35,0.611 ± 0.052
COc1cccc(C2(O)CCCCC2CN(C)C)c1 (stereo not drawn) [Tramadol hydrochloride],1.14 ± 0.082,1.04 ± 0.079,1.09 ± 0.08,1.08 ± 0.35,1.24 ± 0.37,1.25 ± 0.19,,0.875 ± 0.072,1.35 ± 0.43,,1.09 ± 0.36,1.3 ± 0.14,1.36 ± 0.38,1.23 ± 0.18,1.36 ± 0.34,0.98 ± 0.25,,1.09 ± 0.41
O=C(O)CCCc1ccc(N(CCCl)CCCl)cc1 [Chlorambucil],1.24 ± 0.13,1.26 ± 0.33,0.912 ± 0.083,1.18 ± 0.081,1.12 ± 0.14,0.764 ± 0.042,,,,0.738 ± 0.19,0.825 ± 0.2,1.16 ± 0.4,1.2 ± 0.36,1.13 ± 0.36,0.946 ± 0.087,1.4 ± 0.24,0.438 ± 0.036,0.748 ± 0.14
CNC1=Nc2ccc(Cl)cc2C(c2ccccc2)=[N+]([O-])C1 [Chlordiazepoxide],1.09 ± 0.092,1.07 ± 0.25,1.31 ± 0.015,0.817 ± 0.11,0.947 ± 0.2,1.01 ± 0.17,1.24 ± 0.2,,1.17 ± 0.61,,1.36 ± 0.27,0.919 ± 0.25,0.81 ± 0.26,1.11 ± 0.22,1.05 ± 0.12,1.04 ± 0.18,,
CS(=O)(=O)Nc1ccc(Cc2noc(-c3ccc4[nH]cc(CCN)c4c3)n2)cc1,1.15 ± 0.064,1.18 ± 0.098,1.36 ± 0.15,1.06 ± 0.27,1.36 ± 0.053,1.13 ± 0.066,,,,,1.1 ± 0.16,1.47 ± 0.075,0.726 ± 0.22,1.13 ± 0.091,1.03 ± 0.081,0.781 ± 0.19,0.943 ± 0.52,
Oc1ccc2c3c1O[C@H]1[C@@H](O)CC[C@@]4(O)[C@@H](C2)N(CC2CCC2)CC[C@]314 [Nalbuphine hydrochloride],1.46 ± 0.11,1.39 ± 0.055,1.24 ± 0.13,1.18 ± 0.16,1.24 ± 0.077,1.15 ± 0.22,,,,,1.12 ± 0.23,0.886 ± 0.2,1.25 ± 0.28,1.02 ± 0.14,0.937 ± 0.15,1.47 ± 0.43,0.677 ± 0.27,
Cc1nnc2n1-c1ccc(Cl)cc1C(c1ccccc1)=NC2 [Alprazolam],1.41 ± 0.17,1.26 ± 0.11,1.14 ± 0.13,1.2 ± 0.095,1.18 ± 0.071,1.13 ± 0.16,1.1 ± 0.3,,,,0.932 ± 0.18,1.03 ± 0.31,1.04 ± 0.31,0.893 ± 0.032,0.972 ± 0.1,1.2 ± 0.24,,
CN1[C@@H]2C[C@@H](OC(=O)[C@H](CO)c3ccccc3)C[C@H]1[C@@H]1O[C@@H]12 [Scopolamine hydrobromide],1.07 ± 0.093,1.22 ± 0.15,1.31 ± 0.12,0.861 ± 0.12,1.03 ± 0.16,0.994 ± 0.036,,,,0.525 ± 0.055,0.917 ± 0.11,0.873 ± 0.087,0.998 ± 0.19,1.41 ± 0.17,1.21 ± 0.015,1.33 ± 0.19,,
CN1C(=O)COc2c(C(=O)NC3CN4CCC3CC4)cc(Cl)cc21 (stereo not drawn) [Azasetron hydrochloride],1.26 ± 0.037,1.19 ± 0.2,1.02 ± 0.13,1.22 ± 0.23,1.06 ± 0.054,1.26 ± 0.059,0.932 ± 0.16,,,,1.03 ± 0.05,0.993 ± 0.33,1.17 ± 0.27,1.02 ± 0.12,1.1 ± 0.12,1.1 ± 0.24,,
CCCN1C[C@H](CSC)C[C@@H]2c3cccc4[nH]cc(c34)C[C@H]21 [Pergolide mesylate],2.08 ± 1.5,1.41 ± 0.15,1.27 ± 0.16,0.958 ± 0.025,1.46 ± 0.083,1.25 ± 0.33,0.744 ± 0.67,,,,0.506 ± 0.51,0.913 ± 0.16,0.87 ± 0.37,1.1 ± 0.04,0.861 ± 0.13,0.956 ± 0.14,,
c1ccc2c3c([nH]c2c1)CNCC3 [Tryptoline],1.34 ± 0.05,1.44 ± 0.23,1.28 ± 0.076,0.818 ± 0.14,1.09 ± 0.052,1.26 ± 0.038,0.581 ± 0.45,,,,0.856 ± 0.11,1.23 ± 0.32,0.918 ± 0.048,1.32 ± 0.021,1.05 ± 0.061,0.895 ± 0.12,,
"COc1ccc2c(c1)[C@]13CCCC[C@@H]1[C@H](C2)N(C)CC3 [Dextromethorphan hydrobromide, monohydrate]",1.48 ± 0.15,1.24 ± 0.38,1.93 ± 0.39,1.03 ± 0.085,1.16 ± 0.082,1.2 ± 0.11,,,,0.589 ± 0.13,0.861 ± 0.11,1.16 ± 0.25,0.485 ± 0.071,1.07 ± 0.2,1.18 ± 0.35,0.78 ± 0.024,,

# An excerpt of these results, tab-delimited.
SMILES	Hoechst total cell count ratio (hAMSC donor 1 [1]; [7])	Hoechst total cell count ratio (hAMSC donor 1 [1]; [8])	Hoechst total cell count ratio (hAMSC donor 1 [1]; [9])	Hoechst total cell count ratio (hAMSC donor 2 [2]; [7])	Hoechst total cell count ratio (hAMSC donor 2 [2]; [8])	Hoechst total cell count ratio (hAMSC donor 2 [2]; [9])	transgenic luciferase activity (hAMSC donor 1 [3]; [7])	transgenic luciferase activity (hAMSC donor 1 [3]; [8])	transgenic luciferase activity (hAMSC donor 2 [4]; [8])	transgenic luciferase activity (hAMSC donor 2 [4]; [9])	transfection efficiency (hAMSC donor 1 [5]; [7])	transfection efficiency (hAMSC donor 1 [5]; [8])	transfection efficiency (hAMSC donor 1 [5]; [9])	transfection efficiency (hAMSC donor 2 [6]; [7])	transfection efficiency (hAMSC donor 2 [6]; [8])	transfection efficiency (hAMSC donor 2 [6]; [9])	transgenic luciferase activity (hAMSC donor 1 [3]; [9])	transgenic luciferase activity (hAMSC donor 2 [4]; [7])
Cc1nnc2n1-c1ccc(Cl)cc1C(c1ccccc1)=NC2 [Alprazolam]	1.41 ± 0.17	1.26 ± 0.11	1.14 ± 0.13	1.2 ± 0.095	1.18 ± 0.071	1.13 ± 0.16	1.1 ± 0.3				0.932 ± 0.18	1.03 ± 0.31	1.04 ± 0.31	0.893 ± 0.032	0.972 ± 0.1	1.2 ± 0.24		
CN1[C@@H]2C[C@@H](OC(=O)[C@H](CO)c3ccccc3)C[C@H]1[C@@H]1O[C@@H]12 [Scopolamine hydrobromide]	1.07 ± 0.093	1.22 ± 0.15	1.31 ± 0.12	0.861 ± 0.12	1.03 ± 0.16	0.994 ± 0.036				0.525 ± 0.055	0.917 ± 0.11	0.873 ± 0.087	0.998 ± 0.19	1.41 ± 0.17	1.21 ± 0.015	1.33 ± 0.19		
